{"source": "paper PMC7862772", "molecules": {"B1": {"name": "EteIF-5A fused to the VN155 fragment (pBiFC-VN155-EteIF-5A) (protein, UniProt U6KT65 1-161)", "chain": "MSDAEEVSFERADAGASLTYPQQAGAIKKNGFCMLKGNPCKVVDYSTSKTGKHGHAKAHIVGLDIFTGKKYEDICPTSHNMEVPNVKRSEFQLIDVSDDGFVSLLLDNGDLKSDLTLPKDSDGNLDEVALQVKSLFQEGKGVLVSVLAACGKEKIVACKEL"}, "B2": {"name": "recombinant E. tenella eIF-5A, GST-tagged (rEteIF-5A) (protein, UniProt U6KT65 1-161)", "chain": "B1 chain"}}, "key": {"[1]": {"biological_target": "T1, recombinant E. tenella eIF-5A, GST-tagged (rEteIF-5A) (Eimeria tenella) (UniProt U6KT65)", "T1 sequence": "B1 chain", "assay": "pull-down; GST pull-down (Pierce GST Protein Interaction Pull-Down Kit): 150 ug GST-tagged rEteIF-5A (or GST-tag) immobilised on glutathione agarose, 150 ug rEtCDPK4 incubated at 4°C overnight, eluted; western blot with anti-rEteIF-5A and anti-rEtCDPK4 rabbit sera; both purified"}, "[2]": {"biological_target": "EtCDPK4 fused to the VC155 fragment (pBiFC-VC155-EtCDPK4) (Eimeria tenella)", "assay": "split reporter; BiFC in 293T cells co-transfected with pBiFC-VN155 and pBiFC-VC155 fusion plasmids (FuGENE HD), 37°C, fluorescence microscopy 48 h after transfection"}, "[3]": {"biological_target": "recombinant E. tenella CDPK4, His-tagged (His-rEtCDPK4) (Eimeria tenella)", "assay": "co-IP; 50 ug rabbit anti-rEtCDPK4 IgG on A/G resin, 50 ug rEteIF-5A and 50 ug rEtCDPK4 incubated together with the resin at 4°C overnight; eluted; western blot with anti-rEtCDPK4 and anti-rEteIF-5A polyclonal antibodies; negative control resin of the kit; both purified"}}, "note": "These are yes or no findings as the source states them, for the method shown. A result given as binding can be weak or reduced; the word gives no strength. Where a sequence is shown, tags or fusion partners need not be part of it. For part of these data: Binding seen in cells or lysates may run through a third protein."}
{"molecule": "recombinant E. tenella CDPK4, His-tagged (His-rEtCDPK4) (Eimeria tenella)", "values": [{"measurement": "binding", "setting": "[1]", "value": "binds"}]}
{"molecule": "B1", "values": [{"measurement": "binding", "setting": "[2]", "value": "binds"}]}
{"molecule": "B2", "values": [{"measurement": "binding", "setting": "[3]", "value": "binds"}]}
